The list does not hold the whole screen: it gathers tests that were run many times, whatever their T/C, doses with no T/C, and many T/C values between a quarter and a half above the control. Other doses and runs of a compound stand elsewhere. T/C: endpoint of the treated group in % of that of the vehicle group. Some entries give survivors of the animals treated and no T/C: the source holds a T/C of zero for them, seemingly a mark for toxic or unscored doses. Some survivor counts are full or nearly so, which does not show that the dose was tolerated: survival well below the control is almost never listed, so the zero probably covers shortened survival too. Survivors were counted at the toxicity check, usually on the fifth day, unless a day is given; later deaths do not show. Schedules are NCI's codes, taken here to give the interval after Q, in days (D) or hours (H), and the number of doses after X. Some entries were tested several times; their values stand side by side, smallest first. For survival time, this PubChem deposit counts one and a half times the control or more as active, and values a quarter to a half above the control carry no call in these data; other NCI protocols may use other cut-offs. Signs of the kind (2×) stand for listed records that agree. Some T/C values carry the count of animals alive at the toxicity check (mostly the fifth day); without a count, all were alive then.
System: CD2F1 mice, L1210 leukemia ip, survival T/C
Experiment: NCI In Vivo Anticancer Drug Screen. Data for tumor model L1210 Leukemia (intraperitoneal) in CD2F1 (CDF1) mice
Settings: higher T/C = longer survival
Outline: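 Each value reflects a quotient of treated over vehicle control outcomes in mice with a transplanted tumor.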

[1] = T/C endpoint: mean survival time, dose: 150.0 mg/kg/injection, schedule: Q01DX001 (ip), vehicle: saline
[2] = T/C endpoint: mean survival time, dose: 300.0 mg/kg/injection, schedule: Q01DX001 (ip), vehicle: saline
[3] = T/C endpoint: mean survival time, dose: 200.0 mg/kg/injection, schedule: Q01DX009 (ip), vehicle: saline with Tween-80
[4] = T/C endpoint: mean survival time, dose: 400.0 mg/kg/injection, schedule: Q01DX009 (ip), vehicle: saline with Tween-80
[5] = T/C endpoint: median survival time, dose: 400.0 mg/kg/injection, schedule: Q01DX009 (ip), vehicle: saline with Tween-80
[6] = T/C endpoint: mean survival time, dose: 5.0 mg/kg/injection, schedule: Q01DX009 (ip), vehicle: saline
[7] = T/C endpoint: mean survival time, dose: 200.0 mg/kg/injection, schedule: Q04DX003 (ip), vehicle: saline with Tween-80
[8] = T/C endpoint: mean survival time, dose: 400.0 mg/kg/injection, schedule: Q04DX003 (ip), vehicle: saline with Tween-80

In the case of `CN(C)Cc1cc(OCc2ccccc2)cc(CN(C)C)c1O`, the survivor count [1] is reported as 0 of 6 and the survivor count [2] is reported as 0 of 6.
In the case of `O=C1CC(=O)C(CCc2cccc3ccccc23)C1=O` (stereo unspecified), the survivor count (T/C endpoint: mean survival time, dose: 400.0 mg/kg/injection, schedule: Q04DX002 (ip), vehicle: saline with Tween-80) is reported as 1 of 3.
`O=C1C2CCCC3CCCC(C(=O)N1NC1CCCCC1)C32` (stereo unspecified) was tested, and the survivor count (T/C endpoint: mean survival time, dose: 50.0 mg/kg/injection, schedule: Q01DX009 (ip), vehicle: saline with Tween-80) was 3 of 3 and the survivor count [3] was 3 of 3.
With `O=C(Nc1nncs1)c1cccs1` the T/C [3] was 125 % of control, the T/C [4] was 133 % of control and the T/C (T/C endpoint: median survival time, dose: 50.0 mg/kg/injection, schedule: Q01DX009 (ip), vehicle: saline with Tween-80) was 97 (2×), 101, 109 % of control. The T/C (T/C endpoint: median survival time, dose: 100.0 mg/kg/injection, schedule: Q01DX009 (ip), vehicle: saline with Tween-80) was 98 (3×), 105, 106, 121 % of control, the T/C (T/C endpoint: median survival time, dose: 200.0 mg/kg/injection, schedule: Q01DX009 (ip), vehicle: saline with Tween-80) was 103, 104, 106, 117, 121, 123 % of control and the T/C [5] was 120, 125, 135, 136, 147, 164 % of control. The T/C (T/C endpoint: median survival time, dose: 800.0 mg/kg/injection, schedule: Q01DX009 (ip), vehicle: saline with Tween-80) was 123 [5 of 6 alive], 135, 139, 144 [5 of 6 alive], 170 % of control (2×).
With `CCCCCCCCCCCCOCC[N+](CCO)(CCO)Cc1ccccc1` the survivor count [6] was 1 of 6, the survivor count (T/C endpoint: mean survival time, dose: 10.0 mg/kg/injection, schedule: Q01DX009 (ip), vehicle: saline) was 0 of 6 and the survivor count (T/C endpoint: mean survival time, dose: 20.0 mg/kg/injection, schedule: Q01DX009 (ip), vehicle: saline) was 0 of 6. For the same compound, the survivor count (T/C endpoint: mean survival time, dose: 100.0 mg/kg/injection, schedule: Q04DX003 (ip), vehicle: saline with Tween-80) was 0 of 6, the survivor count [7] was 0 of 6 and the survivor count [8] was 0 of 6.
`CCOS(=O)(=O)c1ccc(Cl)c([N+](=O)[O-])c1` was tested, and the survivor count (T/C endpoint: mean survival time, dose: 100.0 mg/kg/injection, schedule: Q01DX009 (ip), vehicle: saline with Tween-80) was 3 of 6, the survivor count [3] was 1 of 6 and the survivor count [7] was 4 of 6. The survivor count [8] was 3 of 6.
For `CCCCCCCCCCCC(=O)NC(=S)Nc1cc(Cl)ccc1Cl`, the survivor count [7] was 6 of 6, the survivor count (T/C endpoint: mean survival time, dose: 400.0 mg/kg/injection, schedule: Q01DX001 (ip), vehicle: saline with Tween-80) was 5 of 6 and the survivor count [4] was 2 of 3 and 5 of 6.
For `CCCC1CCC(=C2C(=O)CCC2=O)O1` (stereo unspecified), the survivor count [5] was 0 of 6.
In the case of `COc1cc(C2=NCCc3cc4c(cc32)OCO4)cc(OC)c1OC`, the T/C (T/C endpoint: median survival time, dose: 100.0 mg/kg/injection, schedule: Q01DX009 (ip), vehicle: saline) is reported as 127 % of control and the survivor count (T/C endpoint: median survival time, dose: 200.0 mg/kg/injection, schedule: Q01DX009 (ip), vehicle: saline) is reported as 0 of 6 and 4 of 6.
For `Clc1ncc2cnccn12`, the survivor count [3] was 2 of 6 and the survivor count [4] was 0 of 6.
`C=CCN(CC=C)P(=O)(N1CC1C)N1CC1C` (stereo unspecified) was tested, and the T/C (T/C endpoint: mean survival time, dose: 1.8 mg/kg/injection, schedule: Q01DX009 (ip), vehicle: saline) was 139 % of control, the T/C (T/C endpoint: mean survival time, dose: 3.0 mg/kg/injection, schedule: Q01DX009 (ip), vehicle: saline) was 131 % of control and the T/C (T/C endpoint: mean survival time, dose: 5.0 mg/kg/injection, schedule: Q01DX001 (ip), vehicle: saline) was 131 % of control. The survivor count [6] was 5 of 6, the T/C (T/C endpoint: mean survival time, dose: 9.5 mg/kg/injection, schedule: Q01DX001 (ip), vehicle: saline) was 126 % of control and the T/C (T/C endpoint: mean survival time, dose: 10.0 mg/kg/injection, schedule: Q01DX001 (ip), vehicle: saline) was 140 % of control. The T/C (T/C endpoint: mean survival time, dose: 19.0 mg/kg/injection, schedule: Q01DX001 (ip), vehicle: saline) was 137 % of control, the survivor count (T/C endpoint: mean survival time, dose: 38.0 mg/kg/injection, schedule: Q01DX001 (ip), vehicle: saline) was 6 of 6 and the survivor count (T/C endpoint: mean survival time, dose: 75.0 mg/kg/injection, schedule: Q01DX001 (ip), vehicle: saline) was 3 of 6. For the same compound, the survivor count [1] was 6 of 6 and the survivor count [2] was 2 of 6.

From PubChem BioAssay AID256 (DTP/NCI, 2004)
